Data published in patent publication US20250114345A1, “COMPOUNDS AND COMPOSITIONS AS CBP/P300 DEGRADERS AND USES THEREOF” (Oncopia Therapeutics, Inc. d/b/a/ SK Life Science Labs, priority 2023, published 2025).

Protein sequences, listed by entry. Tags and fused reporters are not part of them.
UniProt Q09472, whole entry: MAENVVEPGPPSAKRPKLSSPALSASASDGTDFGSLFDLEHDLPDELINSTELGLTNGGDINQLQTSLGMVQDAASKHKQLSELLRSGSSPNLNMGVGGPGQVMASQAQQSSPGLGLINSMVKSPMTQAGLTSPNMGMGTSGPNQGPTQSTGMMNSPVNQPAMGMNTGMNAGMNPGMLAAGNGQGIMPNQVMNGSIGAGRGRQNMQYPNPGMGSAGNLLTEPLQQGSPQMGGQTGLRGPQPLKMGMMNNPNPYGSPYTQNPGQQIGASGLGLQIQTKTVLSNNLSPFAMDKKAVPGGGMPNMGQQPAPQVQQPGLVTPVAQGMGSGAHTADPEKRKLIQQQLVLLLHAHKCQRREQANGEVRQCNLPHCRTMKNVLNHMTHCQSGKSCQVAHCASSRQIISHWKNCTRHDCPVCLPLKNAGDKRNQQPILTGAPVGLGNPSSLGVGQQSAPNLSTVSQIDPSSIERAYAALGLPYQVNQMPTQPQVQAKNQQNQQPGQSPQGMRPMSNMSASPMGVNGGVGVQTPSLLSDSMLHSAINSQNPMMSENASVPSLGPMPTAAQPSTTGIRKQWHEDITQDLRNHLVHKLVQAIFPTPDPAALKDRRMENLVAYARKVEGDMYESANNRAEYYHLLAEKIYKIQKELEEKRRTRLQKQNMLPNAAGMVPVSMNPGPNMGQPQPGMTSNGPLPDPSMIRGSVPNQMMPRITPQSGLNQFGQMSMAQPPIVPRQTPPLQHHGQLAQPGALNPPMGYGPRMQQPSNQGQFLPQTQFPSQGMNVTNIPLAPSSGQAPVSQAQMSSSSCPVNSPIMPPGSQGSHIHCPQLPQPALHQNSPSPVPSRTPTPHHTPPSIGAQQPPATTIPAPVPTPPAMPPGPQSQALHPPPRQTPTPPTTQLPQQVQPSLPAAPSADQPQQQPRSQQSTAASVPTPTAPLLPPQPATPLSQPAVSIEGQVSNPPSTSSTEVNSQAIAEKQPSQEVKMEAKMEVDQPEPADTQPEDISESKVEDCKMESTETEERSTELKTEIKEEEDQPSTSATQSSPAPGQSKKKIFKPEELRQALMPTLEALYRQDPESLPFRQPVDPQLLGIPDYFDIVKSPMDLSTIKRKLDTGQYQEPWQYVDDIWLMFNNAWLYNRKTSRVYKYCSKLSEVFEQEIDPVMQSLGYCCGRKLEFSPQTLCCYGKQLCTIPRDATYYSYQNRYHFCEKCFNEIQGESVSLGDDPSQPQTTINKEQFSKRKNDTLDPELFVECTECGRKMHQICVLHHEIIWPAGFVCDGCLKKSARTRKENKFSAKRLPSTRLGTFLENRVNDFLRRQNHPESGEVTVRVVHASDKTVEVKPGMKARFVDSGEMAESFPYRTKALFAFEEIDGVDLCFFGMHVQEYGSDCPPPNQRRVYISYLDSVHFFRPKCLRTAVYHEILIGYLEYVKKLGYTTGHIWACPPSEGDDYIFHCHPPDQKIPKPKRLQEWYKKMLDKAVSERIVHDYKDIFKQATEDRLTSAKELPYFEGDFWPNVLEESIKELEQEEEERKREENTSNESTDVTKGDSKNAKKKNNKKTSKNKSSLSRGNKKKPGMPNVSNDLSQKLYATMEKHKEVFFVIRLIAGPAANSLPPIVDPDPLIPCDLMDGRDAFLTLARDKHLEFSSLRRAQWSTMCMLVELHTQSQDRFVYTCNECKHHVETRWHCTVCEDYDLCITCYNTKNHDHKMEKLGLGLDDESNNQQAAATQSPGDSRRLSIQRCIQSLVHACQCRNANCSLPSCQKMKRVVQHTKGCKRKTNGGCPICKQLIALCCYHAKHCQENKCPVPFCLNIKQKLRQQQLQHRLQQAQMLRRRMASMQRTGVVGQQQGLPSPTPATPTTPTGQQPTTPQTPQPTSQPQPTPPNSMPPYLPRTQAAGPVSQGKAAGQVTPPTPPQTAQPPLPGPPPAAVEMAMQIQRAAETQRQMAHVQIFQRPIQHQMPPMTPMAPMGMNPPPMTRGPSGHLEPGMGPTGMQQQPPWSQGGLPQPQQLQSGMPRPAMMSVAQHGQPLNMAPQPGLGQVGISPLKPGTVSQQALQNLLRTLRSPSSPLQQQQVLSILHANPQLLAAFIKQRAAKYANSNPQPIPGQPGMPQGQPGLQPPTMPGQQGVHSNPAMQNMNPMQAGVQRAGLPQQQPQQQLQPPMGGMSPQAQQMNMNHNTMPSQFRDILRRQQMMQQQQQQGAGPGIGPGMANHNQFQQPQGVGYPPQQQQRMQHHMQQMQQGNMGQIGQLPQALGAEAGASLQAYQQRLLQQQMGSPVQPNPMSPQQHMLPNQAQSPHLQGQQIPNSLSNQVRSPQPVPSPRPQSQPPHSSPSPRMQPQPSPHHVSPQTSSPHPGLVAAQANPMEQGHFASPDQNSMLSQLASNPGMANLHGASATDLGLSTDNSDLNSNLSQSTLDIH

Biological target: p300 (Homo sapiens, UniProt Q09472)
Assay: P300 degradation, HiBit technology in A549 P300 HiBit cells (2 h)
Settings: for P300 A549 2 h HiBit DMax (%): 2 hrs post treatment; for DC50: read-out: P300 A549 2 h HiBit DC50, 2 hrs post treatment
Procedure: p300 and CBP degradation potency and Dmax were determined using in cell western (ICW) assay technology in H1299 cells or HiBit technology in A549 HiBit cells.
A549 P300 HiBit and A549 CBP HiBit cells were plated in separate 384-well, TC treated, white-opaque, flat-bottomed microplate. Cells were plated at a cell density of 0.2×10^4 cells per well in assay media comprised of F-12K, 10% heat inactivated FBS, and 1% penicillin/streptomycin. Assay microplates containing HiBit cells were placed in a 37° C., 5% CO2, tissue culture incubator and left to equilibrate overnight. The next day cells were treated with serial dilutions of test compound made up of 10 mM stock solutions in DMSO. 384-Well plates containing treated cells were then placed back into a 37° C., 5% CO2, tissue culture incubator. Assay microplates containing A549 P300 HiBit cells were incubated for 2 hrs post treatment before P300 destruction was assessed, while microplates containing A549 CBP HiBit cells were incubated for 24 hrs post treatment before CBP destruction was determined. On the day of each assay time point, microplates were removed from the tissue culture incubator and prepared HiBit Lytic detection buffer (Promega, cat #N3O40) was added to each plate. Plates were covered with aluminum foil and incubated for ten minutes at room temperature on an orbital shaker. After incubation, luminescent signal of each plate was measured using the Envision instrument (Perkin Elmer).

SMILES | P300 A549 2 h HiBit DMax (%) | DC50 [nM]
Cc1cc(-c2ncc3c(n2)OCCN3c2cnc3c(c2)n(C)c(=O)n3C)cnc1C(=O)NCC#Cc1cc2c(C3CCC(=O)NC3=O)cccc2o1 (stereo not shown) | B (“B”: 60-79%) | 10 to 99
Cc1cc2c(N3CCCc4nc(-c5ccc(C(=O)NCC#Cc6ccc7occ(C8CCC(=O)NC8=O)c7c6)nc5)ncc43)nc(N3CCN(S(C)(=O)=O)CC3)cc2n(C)c1=O (stereo not shown) | B (“B”: 60-79%) | 1 to 9.9

The match of structure and compound is tentative.
